{"source": "PubChem BioAssay AID1224830 (NIAID, 2016)", "purpose": "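Host factors that control LPS-induced TNF expression in human macrophages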 (primary screen)", "system": "human THP-1 monocytic leukaemia cells, TNF dual-luciferase reporter clone, PMA-differentiated to macrophage-like cells", "reagent": "siRNA pool against human genes, 50 nM", "timing": "LPS for 4 h, given about 3 days after siRNA transfection", "challenge": "bacterial LPS (TLR4 ligand), 10 ng/ml", "measured": "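TNF firefly reporter luminescence divided by renilla, normalised to the plate median, then turned into a robust z-score for each replicate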", "scale": "TNF reporter robust z-score: higher = stronger TNF reporter response to LPS", "rule for the call": "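a well is active when its z-score exceeds 2.8 or falls below -1.5; control wells carry no call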", "note": "Here is one part, drawn at random, of about 18,000 reagents tested. About 2,900 of all reagents (16%) were called active. 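Calls are made per well; low scores hint the gene aids the LPS response, high scores that it dampens it.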 Entries without a mark were called inactive. Repeated entries: four replicate wells of each siRNA pool. No sequences are given here."}
{"Gene": "FABP9 (fatty acid binding protein 9)", "TNF reporter robust z-score": -0.95}
{"Gene": "FABP9 (fatty acid binding protein 9)", "TNF reporter robust z-score": 0.36}
{"Gene": "FABP9 (fatty acid binding protein 9)", "TNF reporter robust z-score": -0.43}
{"Gene": "FABP9 (fatty acid binding protein 9)", "TNF reporter robust z-score": 0.65}
{"Gene": "MARCO (macrophage receptor with collagenous structure)", "TNF reporter robust z-score": 0.52}
{"Gene": "MARCO (macrophage receptor with collagenous structure)", "TNF reporter robust z-score": 2.25}
{"Gene": "MARCO (macrophage receptor with collagenous structure)", "TNF reporter robust z-score": 0.42}
{"Gene": "MARCO (macrophage receptor with collagenous structure)", "TNF reporter robust z-score": 2.21}
{"Gene": "CCNE2 (cyclin E2)", "TNF reporter robust z-score": -0.2}
{"Gene": "CCNE2 (cyclin E2)", "TNF reporter robust z-score": 0.12}
{"Gene": "CCNE2 (cyclin E2)", "TNF reporter robust z-score": 0.32}
{"Gene": "CCNE2 (cyclin E2)", "TNF reporter robust z-score": 0.81}
{"Gene": "TRPC4", "TNF reporter robust z-score": 1.78}
{"Gene": "TRPC4", "TNF reporter robust z-score": 1.22}
{"Gene": "TRPC4", "TNF reporter robust z-score": -0.37}
{"Gene": "TRPC4", "TNF reporter robust z-score": 1.58}
{"Gene": "CREBRF (CREB3 regulatory factor)", "TNF reporter robust z-score": 0.32}
{"Gene": "CREBRF (CREB3 regulatory factor)", "TNF reporter robust z-score": 0.79}
{"Gene": "CREBRF (CREB3 regulatory factor)", "TNF reporter robust z-score": -0.16}
{"Gene": "CREBRF (CREB3 regulatory factor)", "TNF reporter robust z-score": 1.1}

2 entries from above, ordered by “TNF reporter robust z-score”, ascending.
{"Gene": "MARCO (macrophage receptor with collagenous structure)", "TNF reporter robust z-score": 0.52}
{"Gene": "FABP9 (fatty acid binding protein 9)", "TNF reporter robust z-score": 0.65}
